Data reported in paper PMC6532135.
Results are given in words; binding and its absence hold for the method and conditions named. In cells and extracts the contact can be indirect. Some entries that bind do so weakly or less than the wild type.

Sequences of proteins named here, by UniProt entry; tags and fusion partners are left off. A change or cut given only in a name is not applied to a line headed by its entry. A line that says so, or that is headed by a name, gives the form on record, which may keep a tag or linker. Residues count along the entry.
Nuclear Myosin 1 (O00159-3, form named): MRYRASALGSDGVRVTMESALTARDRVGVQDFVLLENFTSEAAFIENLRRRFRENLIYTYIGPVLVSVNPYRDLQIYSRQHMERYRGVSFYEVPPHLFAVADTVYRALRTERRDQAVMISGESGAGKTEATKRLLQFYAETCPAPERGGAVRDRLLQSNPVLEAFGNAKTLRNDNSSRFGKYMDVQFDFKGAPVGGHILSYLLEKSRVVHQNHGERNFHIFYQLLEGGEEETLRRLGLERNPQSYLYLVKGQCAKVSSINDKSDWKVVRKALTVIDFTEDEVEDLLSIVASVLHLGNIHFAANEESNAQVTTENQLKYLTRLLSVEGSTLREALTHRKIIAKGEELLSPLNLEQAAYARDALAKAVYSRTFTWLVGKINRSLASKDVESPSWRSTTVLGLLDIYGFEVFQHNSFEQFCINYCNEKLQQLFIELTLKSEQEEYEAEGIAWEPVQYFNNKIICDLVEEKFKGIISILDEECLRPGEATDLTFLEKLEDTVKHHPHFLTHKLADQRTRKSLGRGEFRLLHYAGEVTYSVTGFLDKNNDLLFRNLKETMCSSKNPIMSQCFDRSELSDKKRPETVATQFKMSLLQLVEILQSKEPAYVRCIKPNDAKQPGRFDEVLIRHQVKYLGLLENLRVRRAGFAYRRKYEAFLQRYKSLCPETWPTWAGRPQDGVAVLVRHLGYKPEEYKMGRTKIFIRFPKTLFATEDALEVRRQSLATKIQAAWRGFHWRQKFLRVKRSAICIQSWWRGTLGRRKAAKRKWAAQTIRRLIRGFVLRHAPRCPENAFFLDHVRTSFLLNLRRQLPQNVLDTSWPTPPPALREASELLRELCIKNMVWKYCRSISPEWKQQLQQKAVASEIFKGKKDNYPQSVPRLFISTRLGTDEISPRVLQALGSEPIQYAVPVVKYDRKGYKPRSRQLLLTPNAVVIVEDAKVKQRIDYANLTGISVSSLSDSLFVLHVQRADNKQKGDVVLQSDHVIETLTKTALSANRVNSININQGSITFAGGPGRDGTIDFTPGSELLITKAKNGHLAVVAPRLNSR
UniProt P02545, residues 1-646: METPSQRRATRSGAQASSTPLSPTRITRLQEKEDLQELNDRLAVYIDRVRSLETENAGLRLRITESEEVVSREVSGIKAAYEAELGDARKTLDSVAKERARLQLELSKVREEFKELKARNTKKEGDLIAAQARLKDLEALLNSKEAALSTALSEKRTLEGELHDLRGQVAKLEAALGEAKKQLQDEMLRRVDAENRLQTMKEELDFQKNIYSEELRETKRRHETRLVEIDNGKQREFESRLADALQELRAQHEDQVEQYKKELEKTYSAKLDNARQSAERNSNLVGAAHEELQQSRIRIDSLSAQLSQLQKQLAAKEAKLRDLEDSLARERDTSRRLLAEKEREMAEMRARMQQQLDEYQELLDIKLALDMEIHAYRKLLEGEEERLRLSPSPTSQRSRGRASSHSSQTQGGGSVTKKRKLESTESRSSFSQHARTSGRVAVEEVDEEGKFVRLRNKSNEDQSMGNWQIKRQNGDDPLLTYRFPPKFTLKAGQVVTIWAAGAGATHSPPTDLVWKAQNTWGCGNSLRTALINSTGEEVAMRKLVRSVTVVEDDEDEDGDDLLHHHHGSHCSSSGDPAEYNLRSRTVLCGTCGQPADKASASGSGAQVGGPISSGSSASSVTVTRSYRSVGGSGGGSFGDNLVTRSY

Target: T1, Emerin (human (endogenous in DLD-1)) (UniProt P50402)
T1 sequence: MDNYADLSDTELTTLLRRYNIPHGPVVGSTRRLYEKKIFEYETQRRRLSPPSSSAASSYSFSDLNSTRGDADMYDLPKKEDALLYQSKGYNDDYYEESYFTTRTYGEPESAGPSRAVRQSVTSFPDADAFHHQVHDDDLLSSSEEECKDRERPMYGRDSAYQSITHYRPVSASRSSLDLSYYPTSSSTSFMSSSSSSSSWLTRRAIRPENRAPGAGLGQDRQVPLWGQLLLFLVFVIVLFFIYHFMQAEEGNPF
Assay: co-IP; anti-Emerin antibody (sc25284) on 120 ug DLD-1 lysate, control (untreated or siLacZ) and Lamin A/C depleted cells (48 h post Lamin A/C Kd); Co-IP Lysis Buffer 50 mM Tris pH 8.0, 300 mM NaCl, 0.5% NP-40; overnight at 4 °C; Protein G/A-Dynabeads; blots probed for NM1 and Lamin A

| Substance | binding |
| --- | --- |
| Nuclear Myosin 1 (from UniProt O00159-3 1-1044) | binds |
| Lamin A (from UniProt P02545 1-646) | binds |
